# Data published in article PMC9488896 (ACS Chemical Biology, 2022).
# Experiment: general procedure: Fmoc solid-phase peptide synthesis; Fmoc-Rink Amide AM resin (Iris Biotech, 0.74 mmol/g); HCTU/DIPEA
# Conditions: whole synthesis, scale of the general procedure 0.1 mmol; for final HPLC purity: analytical RP-HPLC, UV 214 and 280 nm
substance,measurement,value
"H3(6–12)K9Ac (TARKSTG; K9 acetylated; C-terminal amide; UniProt P68431 7-13, looked up, fragment)",final HPLC purity,98%
same,isolated yield,27%
"H3(1–7)K4Ac (ARTKQTA; K4 acetylated; C-terminal amide; UniProt P68431 2-8, looked up, fragment)",final HPLC purity,99%
same,isolated yield,30%
"H3(11–17)K14Ac (TGGKAPR; K14 acetylated; C-terminal amide; UniProt P68431 12-18, looked up, fragment)",final HPLC purity,98%
same,isolated yield,28%
"H4(4–10)K8Ac (GKGGKGL; K8 acetylated; C-terminal amide; UniProt P62805 5-11, looked up, fragment)",final HPLC purity,99%
same,isolated yield,25%
"H4(9–15)K12Ac (GLGKGGA; K12 acetylated; C-terminal amide; UniProt P62805 10-16, looked up, fragment)",final HPLC purity,99%
same,isolated yield,41%
"H3(23–29)K27Ac (KAARKSA; K27 acetylated; C-terminal amide; UniProt P68431 24-30, looked up, fragment)",final HPLC purity,99%
same,isolated yield,45%
"H4(12–18)K16Ac (KGGAKRH; K16 acetylated; C-terminal amide; UniProt P62805 13-19, looked up, fragment)",final HPLC purity,99%
same,isolated yield,31%
